Data from PMC9266460, “KSK-74: Dual Histamine H3 and Sigma-2 Receptor Ligand with Anti-Obesity Potential” (International Journal of Molecular Sciences, 2022).

test system: rats fed a palatable diet; experiment: Spontaneous activity (RFID TraffiCage); type: in vivo, female Wistar rats; settings: KSK 10 mg/kg b.w., phentermine 7 mg/kg; vs palatable diet + vehicle

Compound	spontaneous activity after the 1st (single) administration	spontaneous activity after the 27th (repeated) administration
CCC(=O)c1ccc(OCCCCCCN2CCN(c3ccncc3)CC2)cc1 [KSK-60]	reduced spontaneous activity at the 17th hour of measurement	reduction in spontaneous activity at the 15th hour of measurement
CCC(=O)c1ccc(OCCCCCCCCN2CCN(c3ccncc3)CC2)cc1 [KSK-74]	did not affect spontaneous activity	did not affect spontaneous activity
CC(C)(N)Cc1ccccc1 [phentermine, reference compound]	decreased spontaneous activity at the 17th hour of measurement	increase in spontaneous activity at the 2nd hour of measurement
